Publication PMC10071310
These are yes or no findings as the source states them, for the method shown. Binding seen in cells or lysates may run through a third protein. A result given as binding can be weak or reduced; the word gives no strength.

Biological target: GFP-KASH5ΔK (human)
Assay: co-IP; GFP-Trap magnetic agarose beads on lysates of HeLaM cells transiently expressing the GFP-tagged bait; endogenous preys detected by immunoblot; 50 mM Tris pH 7.5, 10 mM NaCl, 2.5 mM MgCl2, 1 mM DTT, 0.01% digitonin; 2 h at 4°C

B1: Lissencephaly-1 (LIS1) (protein, UniProt P43034 1-410)
chain: MVLSQRQRDELNRAIADYLRSNGYEEAYSVFKKEAELDVNEELDKKYAGLLEKKWTSVIRLQKKVMELESKLNEAKEEFTSGGPLGQKRDPKEWIPRPPEKYALSGHRSPVTRVIFHPVFSVMVSASEDATIKVWDYETGDFERTLKGHTDSVQDISFDHSGKLLASCSADMTIKLWDFQGFECIRTMHGHDHNVSSVAIMPNGDHIVSASRDKTIKMWEVQTGYCVKTFTGHREWVRMVRPNQDGTLIASCSNDQTVRVWVVATKECKAELREHEHVVECISWAPESSYSSISEATGSETKKSGKPGPFLLSGSRDKTIKMWDVSTGMCLMTLVGHDNWVRGVLFHSGGKFILSCADDKTLRVWDYKNKRCMKTLNAHEHFVTSLDFHKTAPYVVTGSVDQTVKVWECR
binding: binds
